This is one part of the list.
What follows are sequences tested against OsWRKY34 (Oryza sativa, UniProt Q0JBA9 1-250) (assay: protein-binding microarray (RPBM); PBS, 2% BSA, 51.3 ng/ul salmon testes DNA, 50 uM zinc acetate, 200 nM TF, 25 C, 1 h; high values mean tight binding). Conditions: protein: recombinant; tags: N-terminal polyhistidine and DsRed monomer fusion (pET32a); label: CyDye5-dUTP incorporated in the synthesized complementary strand; 3' TTTTT single-stranded linker to array surface; dsDNA, one strand shown.
In short: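 Ni–NTA purification followed expression in E. coli BL21-CodonPlus of transcription factors fused N-terminally to a polyhistidine tag and DsRed. At 200 nM in PBS with 2% BSA, salmon testes DNA and 50 µM zinc acetate, the protein was incubated for 1 h at 25 °C with a custom Agilent array that had been primer-extended with Cy5-dUTP and blocked with 2% BSA. After washing, the array was read on an Axon 4000B scanner. The binding signal is per-feature fluorescence intensity in arbitrary units.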

Protein sequences, listed by entry. Tags and fused reporters are not part of them.
UniProt Q0JBA9, entry or part of it: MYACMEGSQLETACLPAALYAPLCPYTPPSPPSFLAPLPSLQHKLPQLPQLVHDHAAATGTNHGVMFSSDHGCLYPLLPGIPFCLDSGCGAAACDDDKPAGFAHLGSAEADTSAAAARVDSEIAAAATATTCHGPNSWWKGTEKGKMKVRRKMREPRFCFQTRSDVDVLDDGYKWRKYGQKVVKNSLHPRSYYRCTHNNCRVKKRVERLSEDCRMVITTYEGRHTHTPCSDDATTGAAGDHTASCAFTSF

Sequence | binding signal
TAGGTGGTCCCTTGCGGTTTTAGGGGTGTGAATTAAACTCCGGAGTCACCTAGTGCAG | 9820 fluorescence intensity (a.u.)
TCTCGAGGTTGTTACATTGTACTTGTCGCTAGCTCGTCATCGGAGTCACCTAGTGCAG | 8400 fluorescence intensity (a.u.)
CGCCGTTCCGGCCTCCTCTCTTACTTCTACTGCCGACCCCCGGAGTCACCTAGTGCAG | 8090 fluorescence intensity (a.u.)
CGGGTTCTTCATGTGCTGACTTCATTCCATAATTCATGTTCGGAGTCACCTAGTGCAG | 13600 fluorescence intensity (a.u.)
CACCTCGCCTAGGGTTTCGTCTCGGCTCGCGCGCCGCGGCCGGAGTCACCTAGTGCAG | 8310 fluorescence intensity (a.u.)
TCCAATCTGTGCTGCCTTTATATTAGTTCCACCAAGAAGACGGAGTCACCTAGTGCAG | 9380 fluorescence intensity (a.u.)
AATCCGCCACTTGCATGTGGGCCCCGTCATCTGACCCTTCCGGAGTCACCTAGTGCAG | 8260 fluorescence intensity (a.u.)
TTCTATTTACCCCTGTTCAAAACCTACTGTAGAAACAAATCGGAGTCACCTAGTGCAG | 8600 fluorescence intensity (a.u.)
GCCCCTGGAAGATGAGCGGCTGCTGGTCTGGCGGAAGCCCCGGAGTCACCTAGTGCAG | 9170 fluorescence intensity (a.u.)
CTGCTTGTATTTTCAGTACACTGTTTTTTCGTCAGAAGCACGGAGTCACCTAGTGCAG | 8230 fluorescence intensity (a.u.)
TCTCTCTCTTCAGTGCCATCACCATCTCTCTCTCTCTCTCCGGAGTCACCTAGTGCAG | 8210 fluorescence intensity (a.u.)
AACTCGACTTGACCATCTGGCCCCACCTGTCAGCCTCTCACGGAGTCACCTAGTGCAG | 8140 fluorescence intensity (a.u.)
GTGATGGAGATGTAGCTAGTCATGGGCTTCTTCGCCACCGCGGAGTCACCTAGTGCAG | 8080 fluorescence intensity (a.u.)
CTGTATTTTTTCTGTGTTTTGTAATCCTCTGTTTTACACTCGGAGTCACCTAGTGCAG | 11300 fluorescence intensity (a.u.)
TTTCTACACACAAACTTCCAACTTTTCCGTCACATCGTTTCGGAGTCACCTAGTGCAG | 10100 fluorescence intensity (a.u.)
TGGGTCGTGGCGTGGGTCCATATTGCGCGTTAGATTCTGGCGGAGTCACCTAGTGCAG | 8280 fluorescence intensity (a.u.)
CCACACGCAGCCCGAGCCGCCGCCGCTTTTTCCGCCTCTTCGGAGTCACCTAGTGCAG | 10600 fluorescence intensity (a.u.)
TCCAACACACTAGTCTGGCAACCGGCTCTCTAATCCTTAACGGAGTCACCTAGTGCAG | 8190 fluorescence intensity (a.u.)
CTCACCCATTCTAATTATTTAATATTAGGTCATTCTCCAACGGAGTCACCTAGTGCAG | 8390 fluorescence intensity (a.u.)
CCTTACTTCTAAGCAAAACCTAATTTCCTTTGCTTGTTGCCGGAGTCACCTAGTGCAG | 8110 fluorescence intensity (a.u.)
CTCGCGACCACTTCACTGGACTACACTACCACCTCTCTCTCGGAGTCACCTAGTGCAG | 10700 fluorescence intensity (a.u.)

Sequence | binding signal
ATCGAGTCGTGGGTGTGCATGGTGTGCGTGGCGTCAGTTCCGGAGTCACCTAGTGCAG | 8230 fluorescence intensity (a.u.)
CTAATCTTTCATCCACTAACGCTGGCTGCCGCTAATCTACCGGAGTCACCTAGTGCAG | 8300 fluorescence intensity (a.u.)
TGTGTGAGCTTTAGGGTGTGTTTGGATGGAGGGTTTTGGGCGGAGTCACCTAGTGCAG | 10100 fluorescence intensity (a.u.)
ACTCCCTCTATTTCAGGTTATACGATGTTTTAACTTTGGTCGGAGTCACCTAGTGCAG | 9630 fluorescence intensity (a.u.)
CGCCGCAATTCCGCAAACACTTGCACCGTCGTTTATCCCTCGGAGTCACCTAGTGCAG | 8060 fluorescence intensity (a.u.)
TTTTTCCTGTTATCATAGAGGTGTTGCATATACTTGTTCCCGGAGTCACCTAGTGCAG | 8180 fluorescence intensity (a.u.)
GCCGGCCTGCCGCTGGCGGTCTGGCGCTGGGGAGGGGATGCGGAGTCACCTAGTGCAG | 9940 fluorescence intensity (a.u.)
TTTTTCTTTTCTTTTTTGCTTTTGAATTGTGGGGTTGTAACGGAGTCACCTAGTGCAG | 8790 fluorescence intensity (a.u.)
TCTGGACCGCACCTTCCAAATCCACGGCTAAAATCTCCATCGGAGTCACCTAGTGCAG | 8450 fluorescence intensity (a.u.)
CTCGCCGCGCGTCGCCTGCCTCGCTCCCACCGTTTCCGTCCGGAGTCACCTAGTGCAG | 8670 fluorescence intensity (a.u.)
TACATTGTTAGTACTGTTTGGTGTAACTATTTTTTTATAACGGAGTCACCTAGTGCAG | 8180 fluorescence intensity (a.u.)
GACCAACCCCAAAACATGCGCCATTTCCTTATGTTATCCTCGGAGTCACCTAGTGCAG | 11400 fluorescence intensity (a.u.)
ACGCCGCTCCACACCTCTCGTTTTCACTGCTTGCTGCGAGCGGAGTCACCTAGTGCAG | 12400 fluorescence intensity (a.u.)
CCGCCTCCTCCCACGCGCCCATCGCCCACCACCTCCTCACCGGAGTCACCTAGTGCAG | 9160 fluorescence intensity (a.u.)
TTGCATCTCTCTCTCTCTCTCTCTCTCTCTCTCTCTCTCTCGGAGTCACCTAGTGCAG | 10900 fluorescence intensity (a.u.)
ATCCGTCCATACACCGTCACAACAGTTGAATATATACTTCCGGAGTCACCTAGTGCAG | 8300 fluorescence intensity (a.u.)
CATCGTATCGATCCCCATTCGCGCCGTCCTCTTCTTCTTCCGGAGTCACCTAGTGCAG | 10200 fluorescence intensity (a.u.)
CCCATGCTGCATTATTTGCGACTCCCATCCCGTCCTCCACCGGAGTCACCTAGTGCAG | 9240 fluorescence intensity (a.u.)
CTTCACCTCCTCATACCTCGAGCAAGCCATTGATACTGCCCGGAGTCACCTAGTGCAG | 8240 fluorescence intensity (a.u.)
TTAAATACTCTCTCCGTCCCAATCACCGAGCCTATATAATCGGAGTCACCTAGTGCAG | 8490 fluorescence intensity (a.u.)
ACACAACTCTCTCTCTCTCTCTCTCTCTCTCTCTCTCGTCCGGAGTCACCTAGTGCAG | 8230 fluorescence intensity (a.u.)

Sequence | binding signal
AAACGCAACCCATTTTTCATTCATTTCCCTTTTTTATTAGCGGAGTCACCTAGTGCAG | 8720 fluorescence intensity (a.u.)
AAACCCTATTGCTCCCAGCGTCTTTCCTATTTCGGTAATTCGGAGTCACCTAGTGCAG | 11500 fluorescence intensity (a.u.)
ACGACCTCGATCGTCCCGTGTCGTCCAACGCAACGCATGCCGGAGTCACCTAGTGCAG | 8870 fluorescence intensity (a.u.)
AAACTCATTTAATCGTGTCTCTATCCCTCTGTCTCGTTCGCGGAGTCACCTAGTGCAG | 9860 fluorescence intensity (a.u.)
ACACTCCACCGTAGCTCGGTCATCCTTAGTCGCACACCGACGGAGTCACCTAGTGCAG | 10600 fluorescence intensity (a.u.)
GAGGGGTCGGCTCATGCTTTTCACACACTAATTCTCTCGCCGGAGTCACCTAGTGCAG | 12200 fluorescence intensity (a.u.)
GAGGCGGAGATGGGCACGCATGGAGGCGGCGGCGGTGGGGCGGAGTCACCTAGTGCAG | 9880 fluorescence intensity (a.u.)
GTGACTTTTCTCACTAGAGTCCCTGTGTTCCCATAATTTTCGGAGTCACCTAGTGCAG | 11300 fluorescence intensity (a.u.)
TTTTCAGTTTATTTTGTTCTTTTTGTTGCAACTCGCAAAACGGAGTCACCTAGTGCAG | 8910 fluorescence intensity (a.u.)
GCCCGCCATCAGCTAAGCATCCATCCATGTTCTATATAGACGGAGTCACCTAGTGCAG | 8180 fluorescence intensity (a.u.)
GTTGTTTTCTTCCTTTAGGTGATCCATCTTCTTTGTAACACGGAGTCACCTAGTGCAG | 8440 fluorescence intensity (a.u.)
TTTCGGGCTGCTTCGGGCTCGCGCGGGTGGTGGGAGGAAGCGGAGTCACCTAGTGCAG | 9100 fluorescence intensity (a.u.)
GACAAGTTGAGGGACCTTCAGTGTACTTTTTCCTTTTTCTCGGAGTCACCTAGTGCAG | 8580 fluorescence intensity (a.u.)
ACACTCTTTAACTCTGTATATGTGTTATCTGATGGCTGATCGGAGTCACCTAGTGCAG | 8440 fluorescence intensity (a.u.)
ACCTCGTCGGTTCTCAGCCGTTGTCCTCTGCCGCGAGATCCGGAGTCACCTAGTGCAG | 9730 fluorescence intensity (a.u.)
GTCCATTAGCGTCACCCAGTCTAAATCTACATTGCAAATACGGAGTCACCTAGTGCAG | 9910 fluorescence intensity (a.u.)
GTCGTTGTCGGAGCCAGGTAATATTTTTGTAGGGTATTGACGGAGTCACCTAGTGCAG | 9380 fluorescence intensity (a.u.)
CGTCCGTACCAAGATCCAACGGCCCAGATCTCTCTCTCCTCGGAGTCACCTAGTGCAG | 8580 fluorescence intensity (a.u.)
TTATTATCGCCATATATGTATGTCACATCATTTTTTTTAACGGAGTCACCTAGTGCAG | 8240 fluorescence intensity (a.u.)
CACCATATCATCGGTCGCACACCATCGCCGCGTGACCGAACGGAGTCACCTAGTGCAG | 9670 fluorescence intensity (a.u.)
TCCGTCGCCTCCGGCCACCACTCCGCCGCCAACTCTTACCCGGAGTCACCTAGTGCAG | 9410 fluorescence intensity (a.u.)

Sequence | binding signal
GATGGATGGTCTGCCTAATTTCAATTTGTCTCCCAAACTACGGAGTCACCTAGTGCAG | 9530 fluorescence intensity (a.u.)
TTACGTTGCACCTATCGCTTCTCTGCAACTTGACACAATACGGAGTCACCTAGTGCAG | 9200 fluorescence intensity (a.u.)
TTTGTGGGTGATGGTGGGTGGGAGTGGGATAGGGCGGCCCCGGAGTCACCTAGTGCAG | 17000 fluorescence intensity (a.u.)
TTGGTCTCGGAATATGATTTCTTTGTTTGTTCCATGTATACGGAGTCACCTAGTGCAG | 8840 fluorescence intensity (a.u.)
TCTCTTTCCTCATTTATTCACTTGCCACATCATTTTTCATCGGAGTCACCTAGTGCAG | 8440 fluorescence intensity (a.u.)
GTTGTGGTAAATATGTGATGTCGTCTTTTAAAAAAAGATACGGAGTCACCTAGTGCAG | 8650 fluorescence intensity (a.u.)
CGAGCTTCGGTTCATCTCTGTCGCCAAATCCTAGTGTGTCCGGAGTCACCTAGTGCAG | 9390 fluorescence intensity (a.u.)
GTCCGCAAGTCTCGTGCTCTCACTCTCCACCTTCTTCTTCCGGAGTCACCTAGTGCAG | 9970 fluorescence intensity (a.u.)
ACTTTCCTACACACAAACTTTCAACTTTTTCATCACATCGCGGAGTCACCTAGTGCAG | 8900 fluorescence intensity (a.u.)
GTCGGCTGGTTTTTTTTGTTTAGGTCGCCCCTGTAACTGACGGAGTCACCTAGTGCAG | 11900 fluorescence intensity (a.u.)
ATTGGTTTAGTCACAGCTGATGCTGGTCGCACGGCTTTCACGGAGTCACCTAGTGCAG | 8190 fluorescence intensity (a.u.)
CGCGCGTGTGATTGGCTGGCTTGGTCAGGGTCAACGTTGGCGGAGTCACCTAGTGCAG | 8310 fluorescence intensity (a.u.)
ATTTTTTTTCAGCCACTTACACAGTAGTTACACCTCATTTCGGAGTCACCTAGTGCAG | 10400 fluorescence intensity (a.u.)
GTCTCCTCTGTTTATATAAATCCCAAAGGCCTCATTCGCTCGGAGTCACCTAGTGCAG | 9360 fluorescence intensity (a.u.)
CTCGCGTCAGTCAGTCCCGTCAGCCGTCGTCACCGCCTTGCGGAGTCACCTAGTGCAG | 8370 fluorescence intensity (a.u.)
ATTCATTCCTATTTGCAATTCAGATTGCTTTTATCTTGTTCGGAGTCACCTAGTGCAG | 8170 fluorescence intensity (a.u.)
TGGAACTCAGTGCTGCCATATTATTACCCGTTGTTCTTTTCGGAGTCACCTAGTGCAG | 12000 fluorescence intensity (a.u.)
CCTCACCGATGGATTTTTTAGCCCGATCCTACCCCTCCTACGGAGTCACCTAGTGCAG | 10500 fluorescence intensity (a.u.)
TCTTTCCTTACCTCGGACGCATAGCCGGTTTGGCCTTTTTCGGAGTCACCTAGTGCAG | 8240 fluorescence intensity (a.u.)
CATTTAGGCATTTGGAATTTCTGGATTTGTCCCAGCTATCCGGAGTCACCTAGTGCAG | 8170 fluorescence intensity (a.u.)
TTTCCTTGTTTCGTCCTGATGACTTGCCTCACTCACTATACGGAGTCACCTAGTGCAG | 10700 fluorescence intensity (a.u.)

Some of the entries so far, as a markdown table:

| Sequence | binding signal |
| --- | --- |
| CGCGCGTGTGATTGGCTGGCTTGGTCAGGGTCAACGTTGGCGGAGTCACCTAGTGCAG | 8310 fluorescence intensity (a.u.) |
| GTCTCCTCTGTTTATATAAATCCCAAAGGCCTCATTCGCTCGGAGTCACCTAGTGCAG | 9360 fluorescence intensity (a.u.) |
| ATTCATTCCTATTTGCAATTCAGATTGCTTTTATCTTGTTCGGAGTCACCTAGTGCAG | 8170 fluorescence intensity (a.u.) |
| CATTTAGGCATTTGGAATTTCTGGATTTGTCCCAGCTATCCGGAGTCACCTAGTGCAG | 8170 fluorescence intensity (a.u.) |
| TTTCCTTGTTTCGTCCTGATGACTTGCCTCACTCACTATACGGAGTCACCTAGTGCAG | 10700 fluorescence intensity (a.u.) |
